Assay [1] concerns the target TNRC6A (GW182) (human (endogenous in A549)) (UniProt Q8NDV7). Briefly: co-IP; TNRC6 IP from cytoplasmic and nuclear lysates of A549 cells treated with control siRNA or siAGO2 for 24 h (Fig 3I); blots for TNRC6, AGO2 and p53.
For assay [2], the target named is AGO2 (human (endogenous in HEK293, HEK293T, A549, SK-N-BE(2), MCF7)) (UniProt Q9UKV8). Description: co-IP; AGO2 IP or p53 IP from the nuclear fraction of A549 cells (Fig 3G, 3H); blots for AGO2, p53 and TNRC6A.
Assay [3] has the same target. Description: co-IP; AGO2 IP or p53 IP from the cytoplasmic fraction of A549 cells (Fig 3G, 3H); blots for AGO2, p53 and TNRC6A.

Chains of the proteins cited; added tags and fusions are not shown.
UniProt Q8NDV7: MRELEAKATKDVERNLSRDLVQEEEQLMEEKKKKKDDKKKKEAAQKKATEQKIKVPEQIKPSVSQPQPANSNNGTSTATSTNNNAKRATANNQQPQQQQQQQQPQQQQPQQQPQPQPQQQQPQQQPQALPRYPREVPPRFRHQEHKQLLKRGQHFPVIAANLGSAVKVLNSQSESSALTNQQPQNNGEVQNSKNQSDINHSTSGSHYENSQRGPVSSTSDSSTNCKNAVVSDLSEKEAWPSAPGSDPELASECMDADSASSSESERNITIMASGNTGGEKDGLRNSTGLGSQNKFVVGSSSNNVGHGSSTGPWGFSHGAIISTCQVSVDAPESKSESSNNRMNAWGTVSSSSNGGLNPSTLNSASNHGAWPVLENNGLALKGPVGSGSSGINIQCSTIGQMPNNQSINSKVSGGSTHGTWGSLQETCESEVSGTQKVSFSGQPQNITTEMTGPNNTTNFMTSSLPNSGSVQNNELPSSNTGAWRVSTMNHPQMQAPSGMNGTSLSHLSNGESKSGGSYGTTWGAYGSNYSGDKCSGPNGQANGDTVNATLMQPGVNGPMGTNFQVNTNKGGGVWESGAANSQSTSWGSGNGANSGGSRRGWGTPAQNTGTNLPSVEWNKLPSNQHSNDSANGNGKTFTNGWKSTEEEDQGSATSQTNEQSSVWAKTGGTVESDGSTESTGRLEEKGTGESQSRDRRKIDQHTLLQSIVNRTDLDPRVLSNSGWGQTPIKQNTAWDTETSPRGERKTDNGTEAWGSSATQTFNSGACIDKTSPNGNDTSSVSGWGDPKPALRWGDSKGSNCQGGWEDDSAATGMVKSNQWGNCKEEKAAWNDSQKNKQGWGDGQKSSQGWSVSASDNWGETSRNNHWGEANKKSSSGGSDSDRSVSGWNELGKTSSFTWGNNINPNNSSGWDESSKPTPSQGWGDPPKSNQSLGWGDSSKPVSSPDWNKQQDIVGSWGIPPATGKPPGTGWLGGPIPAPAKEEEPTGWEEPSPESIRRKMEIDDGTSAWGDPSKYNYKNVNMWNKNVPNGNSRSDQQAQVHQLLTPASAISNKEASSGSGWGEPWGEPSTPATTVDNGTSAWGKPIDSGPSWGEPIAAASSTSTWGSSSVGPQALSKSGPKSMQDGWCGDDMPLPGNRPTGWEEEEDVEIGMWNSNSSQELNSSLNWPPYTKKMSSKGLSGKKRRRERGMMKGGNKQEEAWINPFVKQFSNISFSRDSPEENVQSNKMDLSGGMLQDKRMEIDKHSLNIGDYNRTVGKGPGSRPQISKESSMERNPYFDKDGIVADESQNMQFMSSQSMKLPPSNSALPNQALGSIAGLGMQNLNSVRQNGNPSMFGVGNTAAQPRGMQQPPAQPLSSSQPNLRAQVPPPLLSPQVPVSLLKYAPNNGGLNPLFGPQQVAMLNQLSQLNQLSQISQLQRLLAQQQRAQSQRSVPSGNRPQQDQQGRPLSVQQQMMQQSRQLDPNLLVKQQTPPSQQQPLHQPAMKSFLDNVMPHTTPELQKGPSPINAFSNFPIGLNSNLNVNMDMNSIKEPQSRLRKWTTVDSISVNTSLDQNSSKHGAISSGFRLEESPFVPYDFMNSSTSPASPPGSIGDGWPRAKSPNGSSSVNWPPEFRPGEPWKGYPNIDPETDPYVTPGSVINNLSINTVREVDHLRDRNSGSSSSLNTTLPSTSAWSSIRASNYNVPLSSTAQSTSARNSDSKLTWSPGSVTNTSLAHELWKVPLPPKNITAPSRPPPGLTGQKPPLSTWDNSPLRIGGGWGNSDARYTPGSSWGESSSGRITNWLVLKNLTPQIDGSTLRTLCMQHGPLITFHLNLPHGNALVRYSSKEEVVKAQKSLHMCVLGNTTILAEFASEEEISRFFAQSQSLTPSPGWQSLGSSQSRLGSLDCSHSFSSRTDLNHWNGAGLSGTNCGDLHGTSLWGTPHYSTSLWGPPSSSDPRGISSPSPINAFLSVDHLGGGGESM
UniProt Q9UKV8: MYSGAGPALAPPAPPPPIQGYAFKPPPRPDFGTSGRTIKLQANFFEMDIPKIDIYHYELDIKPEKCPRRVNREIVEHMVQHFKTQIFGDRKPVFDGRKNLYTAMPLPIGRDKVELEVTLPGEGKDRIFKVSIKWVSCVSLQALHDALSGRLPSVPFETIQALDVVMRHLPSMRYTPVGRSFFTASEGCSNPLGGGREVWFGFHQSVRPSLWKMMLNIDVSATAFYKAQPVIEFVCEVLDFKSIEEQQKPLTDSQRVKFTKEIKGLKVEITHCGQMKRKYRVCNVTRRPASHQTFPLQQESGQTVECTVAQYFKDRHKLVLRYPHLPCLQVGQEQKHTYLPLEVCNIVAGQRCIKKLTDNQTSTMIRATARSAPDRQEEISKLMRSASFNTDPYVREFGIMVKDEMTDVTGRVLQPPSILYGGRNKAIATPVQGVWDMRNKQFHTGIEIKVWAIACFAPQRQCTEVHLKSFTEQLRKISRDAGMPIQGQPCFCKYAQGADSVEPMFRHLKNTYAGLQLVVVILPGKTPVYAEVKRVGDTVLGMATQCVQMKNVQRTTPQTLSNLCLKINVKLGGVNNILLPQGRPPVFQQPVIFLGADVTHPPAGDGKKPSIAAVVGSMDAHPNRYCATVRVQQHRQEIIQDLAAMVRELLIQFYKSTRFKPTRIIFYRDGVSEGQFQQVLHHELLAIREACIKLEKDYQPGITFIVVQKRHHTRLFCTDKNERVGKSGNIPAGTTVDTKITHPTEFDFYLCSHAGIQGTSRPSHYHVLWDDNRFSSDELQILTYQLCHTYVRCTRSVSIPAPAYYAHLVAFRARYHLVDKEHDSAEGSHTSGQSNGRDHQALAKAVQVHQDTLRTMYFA

No constants are given. Whether binding was seen depends on the method and setting. In cells and extracts the contact can be indirect. Some results given as binding are weak or reduced against the parent protein; the word gives no strength.

For p53 (from UniProt P04637 1-393), in assay [1], the binding entry is given as “binds”.
For “TNRC6A (GW182) (from UniProt Q8NDV7 1-1962)”, the binding entry in assay [2] and in assay [3] was “binds” throughout.

The values are drawn from paper PMC11992678.
